# Experimental data reported in PubChem BioAssay AID540276 (National Center for Advancing Translational Sciences (NCATS), 2011).
# The whole screen tested about 300,000 compounds, of which about 5,400 (1.8%) were called active. The shares of active, inactive and inconclusive entries below differ from those in the screen. Calls follow the shape of the full dose curve; tested in HEK293 cells. A potency beside an inconclusive call is a rough fit, not a confirmed value.
# Assay: qHTS for inhibitors of binding or entry into cells for Marburg Virus
# Conditions: Marburg virus pseudotyped entry inhibition, cell reporter; series mostly up to 37.8 µM
# Potency is read from the fitted curve at half-maximal effect.
row,Structure (SMILES),Potency
1,CCOc1ccccc1N(CC(=O)NC1CCCCC1)S(=O)(=O)c1ccc(C)cc1,active: 3.16 µM
2,CCOC(=O)C(=O)N(Nc1ccc(C)cc1)c1ccc(C)cc1,"inconclusive: 3.55 µM [activator, single point]"
3,COC(=O)c1ccccc1NC(=O)c1cnc(Nc2ccc(OC)cc2)c2ccccc12,"inconclusive: 3.55 µM [inhibitor, partial curve, poor fit]"
4,Cc1c(CCO)c(=O)n(-c2ccccc2)n1S(=O)(=O)c1ccc([N+](=O)[O-])cc1,"inconclusive: 3.98 µM [activator, single point]"
5,Cc1ccc(NC(=O)CNC(=O)c2ccc(Br)o2)nc1,"inconclusive: 5.62 µM [activator, single point]"
6,CC(=O)c1cccc(NC(=S)NC(=O)Cc2ccccc2)c1,"inconclusive: 17.8 µM [activator, single point]"
7,COc1ccc(C2=Nc3ccc(F)cc3NC(c3cccc(C(F)(F)F)c3)=N2)cc1,inactive
8,CCOCCCNCc1cccc(OCc2ccc(F)cc2)c1,"inconclusive: 29.1 µM [inhibitor, single point]"
9,CCCOc1ccc(C(=O)N(Cc2ccccc2Cl)C2CCS(=O)(=O)C2)cc1 (configuration not stated),inactive
10,COc1ccc(C)cc1S(=O)(=O)N1CCCC(C(=O)N2CCOCC2)C1 (configuration not stated),inactive
11,Oc1cccc(/C=N/Nc2cccc3cccnc23)c1,"inconclusive: 6.31 µM [activator, partial curve, poor fit]"
12,Cc1cccc(N2CCN(Cc3nnc(-c4ccccc4C)o3)CC2C)c1 (configuration not stated),inactive
13,Cc1cc(C(=O)Nc2cccnc2)no1,inactive
14,COc1ccccc1-n1c(SCC(=O)N2CCCC2)nnc1-c1ccccc1,"inconclusive: 11.2 µM [inhibitor, partial curve, poor fit]"
15,S=C1Nc2ccccc2Sc2ccc(Cl)cc21,inactive
16,CCc1ccc2ncc(C(=O)c3ccc(C)c(C)c3)c(N3CCC(C(N)=O)CC3)c2c1,"inconclusive: 11.2 µM [inhibitor, partial curve, poor fit]"
17,COc1ccccc1NC(=O)c1cnc2c(-c3ccccc3)c(C)nn2c1C,inactive
18,CCN(CC)C(c1ccc(C)cc1)c1nnnn1C1CCCCC1 (configuration not stated),inactive
19,Cc1ccc(S(=O)(=O)Nc2nc3ccccc3s2)cc1[N+](=O)[O-],"inconclusive: 11.2 µM [inhibitor, single point]"
20,O=C(CCN1CCN(c2ccccc2)CC1)NNC(=O)Cc1ccc(Br)cc1,"inconclusive: 35.5 µM [inhibitor, single point]"
21,Cc1nn(C)cc1/C=N\NC(=O)c1ccc2c(c1)c(C)c(C)n2Cc1ccccc1,"inconclusive: 35.5 µM [inhibitor, partial curve, poor fit]"
22,CCOC(=O)c1ccc(NC(=S)NN2CCOCC2)cc1,"inconclusive: 20.6 µM [activator, single point]"
23,COc1cc(OC)c(OC)cc1CNC(=O)c1cc(=O)c2ccccc2o1,"inconclusive: 10 µM [inhibitor, partial curve, poor fit]"

# Three compounds out of the list, ordered by molecular weight, low to high:
row,Structure (SMILES),Potency
11,Oc1cccc(/C=N/Nc2cccc3cccnc23)c1,"inconclusive: 6.31 µM [activator, partial curve, poor fit]"
18,CCN(CC)C(c1ccc(C)cc1)c1nnnn1C1CCCCC1 (configuration not stated),inactive
3,COC(=O)c1ccccc1NC(=O)c1cnc(Nc2ccc(OC)cc2)c2ccccc12,"inconclusive: 3.55 µM [inhibitor, partial curve, poor fit]"

# Further structures:

row,Structure (SMILES),Potency
1,Cc1cc2c(c(=O)n1-c1ccccc1)[C@H]1O[C@](c3ccsc3)(Cc3cc(C#N)ccc31)O2,"inconclusive: 1.19 µM [activator, single point]"
2,Cc1ccc(-c2nnc(SCC(=O)N3CCOCC3)nc2-c2ccc(C)cc2)cc1,"inconclusive: 35.5 µM [inhibitor, single point]"
3,CCNc1c(C(=O)O)ccc2c1C(=O)c1ccccc1C2=O,inactive
4,COc1ccccc1OCC(=O)Nc1c2c(nn1-c1ccc(F)cc1)CS(=O)(=O)C2,"inconclusive: 0.251 µM [inhibitor, full curve, poor fit]"
5,CCOc1cc(/C=C2/SC(=N)N(c3nccs3)C2=O)ccc1OCCN1CCOCC1,"inconclusive: 16.4 µM [inhibitor, partial curve, poor fit]"
6,COCCCNC(=O)CCCn1c(SCC(=O)c2ccc(F)cc2)nc2c(sc3ccccc32)c1=O,inactive
7,C#C[C@]1(O)CC[C@H]2[C@@H]3CCc4cc(O)ccc4[C@H]3CC[C@@]21C,"inconclusive: 16.4 µM [inhibitor, single point]"
8,CCOC(=O)/C(=N\Nc1ccc(Cl)cc1)c1csc(Nc2ccccc2)n1,"inconclusive: 10 µM [inhibitor, partial curve]"
9,CC(=O)c1ccc(NC(=O)C2CCN(S(=O)(=O)c3ccc4c(c3)N(C(C)=O)CCO4)CC2)cc1,inactive
10,Cc1ccc(S(=O)(=O)Nc2cc(C(C)C)c(O)cc2C)cc1,inactive
11,Cc1scc(C(=O)N/N=C/c2ccc(OCC(C)C)cc2)c1C,"inconclusive: 20 µM [inhibitor, single point]"
12,CC1(C)OC2CC3C4CCC5=CC(=O)CCC5(C)C4(F)C(O)CC3(C)C2(C(=O)CO)O1 (configuration not stated),inactive
13,COc1ccc2[nH]c(C)c(C(=O)CN3CCc4cc(OC)c(OC)cc4C3)c2c1,inactive
14,O=C1CC(c2ccccc2)c2c(O)cc(O)cc2O1 (configuration not stated),"inconclusive: 5.62 µM [activator, single point]"
15,CCC(c1nnnn1Cc1cccs1)N1CCN(c2nc3ccccc3s2)CC1 (configuration not stated),"inconclusive: 35.5 µM [inhibitor, partial curve, poor fit]"
16,NC(=O)c1ccc(NC(=O)C2CC(=O)N(c3ccc4c(c3)OCCO4)C2)cc1 (configuration not stated),"inconclusive: 28.2 µM [inhibitor, single point]"
17,O=C(c1ccc(Cl)cc1)c1c[nH]c(C(=O)NNc2ccccc2)c1,"inconclusive: 35.5 µM [inhibitor, single point]"
18,Cc1c(C(=O)OC(C)C)sc(NC(=O)C2c3ccccc3Oc3ccccc32)c1C(=O)OC(C)C,"inconclusive: 25.1 µM [inhibitor, single point]"
19,COc1ccc(C(C#N)N2N=C(C)CC2c2ccccc2)cc1 (configuration not stated),inactive
20,CCOc1ccc(NC(=O)Nc2cccnc2)cc1,inactive
21,CCOC(=O)C1(CCOc2ccccc2)CCN(CC2CC2)CC1,"inconclusive: 20 µM [inhibitor, single point]"
22,COc1ccc(CSc2n[nH]c(C)n2)cc1[N+](=O)[O-],"inconclusive: 2.51 µM [activator, partial curve, poor fit]"
23,CCOc1cc(C)c(Cl)cc1S(=O)(=O)n1ccnc1,"inconclusive: 3.55 µM [inhibitor, single point]"

row,Structure (SMILES),Potency
1,O=C(NCc1cccnc1)c1nc(-c2ccc(C(F)(F)F)cc2)no1,"inconclusive: 11.2 µM [inhibitor, partial curve, poor fit]"
2,COc1ccc(-c2nc(NC(=O)c3[nH]c(C)c(C(C)=O)c3C)sc2C)cc1,"inconclusive: 6.31 µM [inhibitor, full curve, poor fit]"
3,O=C(O)CC1NC(=O)N(C2CCCCC2)C1=O (configuration not stated),inactive
4,O=C1c2ccccc2C(=O)N1c1cccc(-c2csc(Nc3ccc4c(c3)OCO4)n2)c1,inactive
5,O=C(c1cccc2ccccc12)C1CCCN(C2CCC2)C1 (configuration not stated),"inconclusive: 4.47 µM [inhibitor, full curve, poor fit]"
6,CCOC(=O)C(C)Sc1nc2c([nH]c3ccccc32)c(=O)n1C (configuration not stated),inactive
7,COC(=O)C1=C(C)N(Cc2ccccc2)C(=O)NC1c1ccccc1 (configuration not stated),"inconclusive: 5.31 µM [inhibitor, single point]"
8,O=C(O)CCC(=O)Nc1sc2c(c1C(=O)Nc1ccccc1)CCCCC2,"inconclusive: 35.5 µM [inhibitor, single point]"
9,CCC(NC(=O)c1cccc(Cn2cc([N+](=O)[O-])cn2)c1)c1ccc(C(C)C)cc1 (configuration not stated),"inconclusive: 16.4 µM [inhibitor, partial curve, poor fit]"
10,O=C(N/N=C/C=C/c1ccccc1)c1ccccc1Br,inactive
11,COc1cccc(N2CCN(C(=O)c3ccc(CS(=O)Cc4ccccc4Cl)o3)CC2)c1 (configuration not stated),inactive
12,COC(=O)c1ccc(-c2noc(CN(C)CC3CCCCO3)n2)cc1 (configuration not stated),"inconclusive: 3.16 µM [activator, single point]"
13,CCOCC(O)CNC(=O)c1ccc2nc(Cc3ccc(OC)c(OC)c3)oc2c1 (configuration not stated),"inconclusive: 3.16 µM [activator, partial curve, poor fit]"
14,O=C(c1ccccc1Cl)N1CCNCC1,"inconclusive: 3.98 µM [activator, single point]"
15,O=C(NC1CCCCC1)C1CCN(S(=O)(=O)c2cccc3nsnc23)CC1,"inconclusive: 6.51 µM [inhibitor, partial curve, poor fit]"
16,COc1ccc(-c2cc(C3CC3)nc3sc(C#N)c(N)c23)cc1,"inconclusive: 8.91 µM [inhibitor, partial curve, poor fit]"
17,Cc1c(NS(=O)(=O)c2cccc(C(=O)OCC(=O)N(C)C3CCCCC3)c2)c(=O)n(-c2ccccc2)n1C,"inconclusive: 10 µM [inhibitor, partial curve, poor fit]"
18,COc1ccccc1NC(=O)COc1ccc(C(=O)NC2CCCc3ccccc32)cc1OC (configuration not stated),"inconclusive: 7.94 µM [inhibitor, partial curve]"
19,O=C(NCCCc1ccccc1)c1ccc(Br)o1,"inconclusive: 25.9 µM [activator, partial curve, poor fit]"
20,CCCS(=O)(=O)c1nc(S(=O)(=O)c2ccc(C)cc2)c(NCc2ccccc2Cl)s1,"inconclusive: 8.91 µM [inhibitor, partial curve, poor fit]"
21,O=C(Nc1cccc(S(=O)(=O)N2CCCC2)c1)c1cccnc1,"inconclusive: 5.62 µM [inhibitor, single point]"
